From publication PMC4745748
No constants are given. Whether binding was seen depends on the method and setting. In cells and extracts the contact can be indirect. A yes stands for co-enrichment or nearness to the bait. Other partners may have been found.

Target: T1, S100P (human) (UniProt P25815)
T1 sequence: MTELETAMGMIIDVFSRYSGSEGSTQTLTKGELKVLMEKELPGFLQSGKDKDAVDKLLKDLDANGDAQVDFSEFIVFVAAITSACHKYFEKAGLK
Experiment: affinity purification with mass spectrometry; S100P pulled down from the cell membrane protein of S100P overexpressing CL1-0 cells; precipitate digested with trypsin and identified by nanoUPLC-MS/MS (LTQ Orbitrap, Mascot)

integrin α7 (human (endogenous in CL1-0)) (receptor)
binding: binds
